The record followed here is article doi:10.1101/2025.09.09.675193 (bioRxiv, 2025).

The assay has as its target T1, DDIAS-pT775 peptide, biotinylated (human).
T1 sequence (peptide, biotin on the N terminus; phosphothreonine at Thr775 ([pThr])): SGSGSQDFVPCSQSTPIS
Put plainly: affinity purification with mass spectrometry.

Results are given in words; binding and its absence hold for the method and conditions named. Binding seen in cells or lysates may run through a third protein. These calls come from enrichment with a bait or labelling near it, and not all partners need be listed.

Take “PLK1, endogenous in 293FT cells (from UniProt P53350 1-603) (enzyme)”: the binding result is reported as “binds”.
